For the data set, the target named is T1, YTHDF3 (mouse) (UniProt Q8BYK6).
T1 sequence (looked up, limits assumed): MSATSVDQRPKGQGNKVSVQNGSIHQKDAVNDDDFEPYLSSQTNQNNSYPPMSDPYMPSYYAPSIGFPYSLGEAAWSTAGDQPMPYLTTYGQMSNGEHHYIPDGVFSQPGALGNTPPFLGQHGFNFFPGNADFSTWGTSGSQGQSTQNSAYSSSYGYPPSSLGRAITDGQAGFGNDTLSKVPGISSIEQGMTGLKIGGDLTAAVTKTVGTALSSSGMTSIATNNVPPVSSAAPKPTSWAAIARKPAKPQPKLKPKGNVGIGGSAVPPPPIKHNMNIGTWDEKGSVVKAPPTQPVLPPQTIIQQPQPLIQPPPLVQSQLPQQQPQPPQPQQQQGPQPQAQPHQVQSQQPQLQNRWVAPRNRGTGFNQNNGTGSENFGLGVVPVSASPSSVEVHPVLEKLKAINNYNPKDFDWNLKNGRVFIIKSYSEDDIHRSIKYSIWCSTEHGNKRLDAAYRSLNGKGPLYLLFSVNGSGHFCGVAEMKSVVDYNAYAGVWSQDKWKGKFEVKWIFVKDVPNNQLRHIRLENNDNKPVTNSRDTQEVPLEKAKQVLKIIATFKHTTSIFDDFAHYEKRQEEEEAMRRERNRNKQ
The data set is described as follows: EMSA. The following applies: LightShift Chemiluminescent RNA EMSA kit, 20 pmol RNA, 6 ug YTHDF3, room temperature 30 min, 6% TBE gel, 0.5x TBE, buffer salt and pH not stated, commercial protein, label: 5' biotin.

For at least one entry, the source does not settle the construct or the ends of the probe. Weaker means in comparison with the reference protein, sequence or condition of that experiment. At least one verdict was read from the data and is not stated in words by the source. Tags and fusion partners may be left off the protein sequences shown.

Consider “CAAGUGGACAGUGAUCC [Foxo3-3'UTR-biotin-RNAProbe 4]”, for which the binding result was “binds more weakly”.
“CAAGUGGACAGUGAUCC [Foxo3-3'UTR-m6A-biotin-RNAProbe 4]”: the binding result (m6A at A8) is given as “binds”.
“CCCAGCAGAGACUGUUA [Foxo3-3'UTR-biotin-RNAProbe 5]”: the binding result is listed as “binds more weakly”.
In the case of “CCCAGCAGAGACUGUUA [Foxo3-3'UTR-m6A-biotin-RNAProbe 5]”, for the setting “m6A at A11”, the binding result was “binds”.
Regarding “CCGUAGUGAACUCAUG [Foxo3-CDS-biotin-RNAProbe 2]”, the binding result is on record as “binds more weakly”.
Turning to “CCGUAGUGAACUCAUG [Foxo3-CDS-m6A-biotin-RNAProbe 2]”, for the setting “m6A at A10”, the binding result is “binds”.
Regarding “GGAACAGAACUCUAUAA [Foxo3-3'UTR-biotin-RNAProbe 6]”, the binding result is reported as “binds more weakly”.
Turning to “GGAACAGAACUCUAUAA [Foxo3-3'UTR-m6A-biotin-RNAProbe 6]”, the binding result (m6A at A9) is reported as “binds”.
Turning to “GGGGAACUUCACUGG [Foxo3-CDS-biotin-RNAProbe 3]”, the binding result is reported as “binds more weakly”.
On the same count and under the same terms, under “GUGACUUGGACCUGGAC [Foxo3-CDS-biotin-RNAProbe 1]” stands “binds more weakly”.

The record behind these values is paper PMC9532426, “Autophagy induction promoted by m6A reader YTHDF3 through translation upregulation of FOXO3 mRNA”.
